Patent US20060122588A1, “Cryosurgery compositions and methods” (Regents of the University of Minnesota, priority 2002, published 2006)

Test system: AT-1 rat prostate tumor cells
Assay: Post-thaw viability of AT-1 cell suspensions in various media on the directional solidification stage (Hoechst/Propidium Iodide membrane integrity assay)
Format: cell-based
Settings: at about −10° C.
Experimental: In freezing experiments with cell suspensions, a half eutectic concentration solution was mixed with cell culture media (Dulbecco's Modified Eagle's Medium/F-12) in 1 (salt solution): 2 (culture media) volume ratio.
AT-1 rat prostate tumor cells were cultured in vitro under standard tissue culture conditions, as are known. AT-1 cells were suspended in each eutectic changing solution, and kept at about 4° C.
Cultured AT-1 cells were separated from a culture flask by immersion in 0.05% (by volume) trypsin and 0.53 mM EDTA, and then suspended in 5% (by volume) fetal bovine serum (FBS)-supplemented medium such that the final trypsin concentration was <0.005% (by volume). After the separation, the cells were pelleted by centrifugation and the excess medium was removed. […]
Post-thaw viabilities of AT-1 cell suspensions in various media were assessed for varying end temperature of the freezing and thawing protocol on the directional solidification stage. […]
The concentrations of these solutions were determined so that the use of these solutions would not result in excessive killing of the AT-1 cells due to high osmotic pressure. […]
Viability of the AT-1 cell suspensions was measured by a membrane integrity assay using Hoechst and Propidium Iodide. […] After incubation, viability was assessed under a fluorescent microscope by scoring more than 200 cells for each sample.

SMILES	eutectic solidification of the AT-1 cell suspension
[Cl-].[K+] [KCl, potassium chloride]	does not
O=[N+]([O-])[O-].[K+] [KNO3, potassium nitrate]	experiences eutectic solidification
